Source: US20250271442A1, “Methods for Detecting Renal Disease” (IDEXX Laboratories, Inc., priority 2013, published 2025)
Some results were stated once for a whole list of compounds, not compound by compound.

Test system: all 6 rabbit anti-SDMA sera
Assay: Competitive ELISA, cross-reactivity of all 6 rabbit anti-SDMA sera
Format: binding
Details: summary of Table 1

Structure (SMILES): N=C(N)NCCC[C@H](N)C(=O)O [L-Arginine, L-arginine]
- cross-reactivities of all 6 rabbit anti-SDMA sera: < 1%
